Laboratory results: patent publication US20110182905A1

Tests used:
rhesus GM-CSF (rhesus) [1] = assay: Western blot
rhesus GM-CSF (rhesus) [2] = assay: Biacore
[3] = biological target: marmoset GM-CSF (marmoset); assay: Biacore

Measured: binding

B1: EV1019 (antibody, human IgG1, lambda, V domains shown)
VH: QAQLVESGGGVVKPGGSLRLSCISSKFTFSSHAMHWVRQAPGKGLEWVAVIWHDGSKKYYADSVKGRFSVSRDNSKNTLFLQMDSLRAEDTAVYFCGKEWVGGTCDSWGQGTLVIVSS
VL: QPALTQEASVSGTVGQTVTLLCSGNSSNIGSYAVGWYQQISRGAPKIVVFGKSPASGIPDRFSGSKSGTTASLLVSGLQPEDEADYYCSTWDSRLSAVLFGGGTKLTVLR
binds: rhesus GM-CSF (rhesus) [1] | rhesus GM-CSF (rhesus) [2] | [3]

These are yes or no findings as the source states them, for the method shown. A result given as binding can be weak or reduced; the word gives no strength.
